Source: PubChem BioAssay AID686938 (Drosophila RNAi Screening Center, 2013)
The deposit covers about 23,000 reagents; this is an unselected part of those with a known target gene and a result. Of all reagents, 75 (0.33%) are marked active. 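Raw plate signals without normalisation; calls rest on plate z-scores that were not deposited; ratio present for only 364 wells.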 Names joined by + are all predicted targets of the reagent. Not stated in the record: the dose of the treatment.

Purpose: 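Knock-downs reducing store-operated calcium influx in Drosophila cells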 (primary screen)
Cells: Drosophila S2R+ cells
Reagents: long dsRNA against Drosophila genes, about 0.25 µg dsRNA per well, roughly 10,000 cells
Timing: 5 days of knock-down before the calcium assay
Challenge: thapsigargin (SERCA pump blocker) to empty calcium stores; entry signal taken 4 min after adding it
Read-out: 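Per-well fluo-4 fluorescence in two replicates, unnormalised, measured in resting cells and 4 min after store depletion by the SERCA blocker thapsigargin; ratio of the two present in few wells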
Scale: calcium entry signal: higher = stronger calcium signal after store depletion; entry to resting ratio: higher = more calcium entry relative to resting level; resting calcium signal: higher = higher resting calcium signal
Call rule: 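Called when the plate z-score of the entry-to-rest ratio, mean of duplicates, falls below −3; wells with low overall dye signal (Fmax z below −2) or more than five off-targets excluded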
Meaning of the calls: active = strongly reduced calcium entry; inactive = no strong reduction

target	DRSC id	calcium entry signal, replicate 1 (fluorescence units)	calcium entry signal, replicate 2 (fluorescence units)	entry to resting ratio	resting calcium signal, replicate 1 (fluorescence units)	resting calcium signal, replicate 2 (fluorescence units)	call
Decay (Death executioner caspase related to Apopain/Yama)	DRSC16930	3.27e7	5.10e7		1.69e7	5.91e7	inactive
IntS2 (Integrator 2)	DRSC20094	2.78e7	3.14e7		1.40e7	1.61e7	inactive
CG17321	DRSC02598	3.16e7	3.47e7		1.62e7	1.57e7	inactive
CG3457	DRSC18509	2.71e7	4.32e7		1.25e7	1.86e7	inactive
CG41520	DRSC21102	3.14e7	3.83e7		1.90e7	1.74e7	inactive
CG41520	DRSC21103	5.42e7	5.35e7		2.37e7	2.07e7	inactive
CG1344	DRSC04837	3.79e7			1.94e7		inactive
TwdlZ (TweedleZ)	DRSC19154	3.27e7	4.25e7		1.74e7	1.83e7	inactive
CG14770	DRSC17947	3.56e7	3.61e7	2.1	1.68e7	1.54e7	inactive
lncRNA:sphinx + ATPsynF	DRSC17191	2.20e7	4.15e7		1.82e7	1.63e7	inactive
D1 (D1 chromosomal protein)	DRSC16638	4.24e7	4.64e7		1.93e7	2.08e7	inactive
neb (nebbish)	DRSC03577	4.39e7			2.17e7		inactive
CG13795	DRSC02299	3.06e7	4.44e7		1.42e7	1.92e7	inactive
Sfp26Ad (Seminal fluid protein 26Ad)	DRSC00904	2.83e7	3.61e7		1.57e7	1.49e7	inactive
CG40948 (retired record)	DRSC20944	4.89e7	2.62e7		3.31e7	1.20e7	inactive
betaTry (betaTrypsin)	DRSC07582	2.65e7	3.87e7		1.38e7	1.94e7	inactive
betaTry (betaTrypsin)	DRSC22377	3.57e7	5.37e7		1.78e7	2.66e7	inactive
CG14006	DRSC02338	2.91e7	2.88e7		1.45e7	1.43e7	inactive
Mf (Myofilin)	DRSC16120	3.62e7	6.06e7		1.80e7	6.25e7	inactive
CG18745	DRSC15382	4.03e7	3.01e7		1.82e7	1.44e7	inactive
CG2652	DRSC18501	4.68e7	7.51e7		2.16e7	3.00e7	inactive
CG2652	DRSC22576	3.16e7	3.76e7		1.58e7	1.53e7	inactive
CG10384	DRSC03933	3.34e7	6.20e7		1.49e7	2.25e7	inactive
CG10384	DRSC04067	2.69e7	2.43e7		1.62e7	1.32e7	inactive
ppk21 (pickpocket 21)	DRSC14466	3.28e7	5.29e7		1.73e7	2.09e7	inactive
CG5515	DRSC15825	4.36e7	3.14e7		2.09e7	1.51e7	inactive
CG17917	DRSC12570	3.24e7	2.99e7		1.69e7	1.42e7	inactive
CG11726	DRSC09858	2.37e7	4.59e7		1.27e7	1.68e7	inactive
His2B:CG33894 + His2B:CG33872 + His2B:CG33902 + 20 more	DRSC21265	1.52e7	2.04e7		1.21e7	1.25e7	inactive

Quoted from the entries so far (10 entries):
target	DRSC id	calcium entry signal, replicate 1 (fluorescence units)	calcium entry signal, replicate 2 (fluorescence units)	entry to resting ratio	resting calcium signal, replicate 1 (fluorescence units)	resting calcium signal, replicate 2 (fluorescence units)	call
betaTry (betaTrypsin)	DRSC07582	2.65e7	3.87e7		1.38e7	1.94e7	inactive
betaTry (betaTrypsin)	DRSC22377	3.57e7	5.37e7		1.78e7	2.66e7	inactive
CG14006	DRSC02338	2.91e7	2.88e7		1.45e7	1.43e7	inactive
Mf (Myofilin)	DRSC16120	3.62e7	6.06e7		1.80e7	6.25e7	inactive
CG18745	DRSC15382	4.03e7	3.01e7		1.82e7	1.44e7	inactive
CG2652	DRSC18501	4.68e7	7.51e7		2.16e7	3.00e7	inactive
CG2652	DRSC22576	3.16e7	3.76e7		1.58e7	1.53e7	inactive
CG10384	DRSC03933	3.34e7	6.20e7		1.49e7	2.25e7	inactive
CG10384	DRSC04067	2.69e7	2.43e7		1.62e7	1.32e7	inactive
ppk21 (pickpocket 21)	DRSC14466	3.28e7	5.29e7		1.73e7	2.09e7	inactive

More entries follow:
target	DRSC id	calcium entry signal, replicate 1 (fluorescence units)	calcium entry signal, replicate 2 (fluorescence units)	entry to resting ratio	resting calcium signal, replicate 1 (fluorescence units)	resting calcium signal, replicate 2 (fluorescence units)	call
Glut3 (Glucose transporter type 3)	DRSC16681	2.65e7	3.98e7		1.29e7	3.64e7	inactive
rad50	DRSC04523	3.74e7			1.93e7		inactive
bon (bonus)	DRSC16914	5.44e7	3.44e7		5.71e7	1.83e7	inactive
CG9646	DRSC07342	2.92e7	3.56e7		1.44e7	1.75e7	inactive
CG12289	DRSC09874	3.07e7	3.58e7		1.67e7	1.62e7	inactive
Abca3 (ATP binding cassette subfamily A member 3)	DRSC20546	3.63e7	3.50e7		2.13e7	1.79e7	inactive
Hil (Hillarin)	DRSC05989	4.39e7	3.75e7		2.00e7	1.84e7	inactive
Hil (Hillarin)	DRSC06395	1.70e7	3.00e7		9.43e6	1.27e7	inactive
Lipt1 + CG42837	DRSC07183	3.96e7	3.45e7		1.81e7	1.74e7	inactive
CG32847	DRSC22901	3.77e7	3.50e7		2.06e7	1.59e7	inactive
NimC3 (Nimrod C3)	DRSC03556	4.61e7	3.25e7		2.13e7	1.47e7	inactive
NimC3 (Nimrod C3)	DRSC22528	3.40e7	2.51e7		1.63e7	1.06e7	inactive
CCAP-R (Crustacean cardioactive peptide receptor)	DRSC14891	3.92e7	6.28e7		2.01e7	2.68e7	inactive
CCAP-R (Crustacean cardioactive peptide receptor)	DRSC15967	4.21e7	7.50e7		2.13e7	2.77e7	inactive
CG2909	DRSC18241	3.46e7	3.49e7		1.94e7	1.79e7	inactive
kn (knot)	DRSC05505	3.33e7	5.97e7		1.46e7	2.66e7	inactive
kn (knot)	DRSC05507	4.01e7	3.10e7		1.81e7	1.34e7	inactive
kn (knot)	DRSC06196	3.10e7	3.40e7		1.68e7	1.62e7	inactive
kn (knot)	DRSC07637	3.30e7	3.65e7		1.76e7	1.68e7	inactive
kn (knot)	DRSC21533	3.75e7	4.08e7		2.22e7	1.95e7	inactive
CG10340	DRSC14232	3.78e7	3.08e7		1.87e7	1.43e7	inactive
Aef1 (Adult enhancer factor 1)	DRSC11605	2.42e7	3.79e7		1.21e7	1.61e7	inactive
CG11570	DRSC09844	3.15e7	4.14e7		1.60e7	1.90e7	inactive
CG15635	DRSC00470	2.58e7	3.59e7		1.33e7	1.74e7	inactive
CG15635	DRSC22873	4.40e7	3.58e7		2.09e7	1.45e7	inactive
CG33143	DRSC04151	3.27e7	2.98e7		1.61e7	1.51e7	inactive
CG33143	DRSC04454	3.07e7	3.37e7		1.62e7	1.57e7	inactive
mtDNA-helicase (mitochondrial DNA helicase)	DRSC02912	3.45e7	5.53e7		1.74e7	2.28e7	inactive
Ugt317A1 (UDP-glycosyltransferase family 317 member A1)	DRSC04470	3.90e7	4.27e7		1.98e7	1.90e7	inactive
dgt4 (dim gamma-tubulin 4)	DRSC18659	2.85e7	3.99e7		1.50e7	2.03e7	inactive
CG17717	DRSC18130	3.04e7	3.77e7		1.34e7	1.79e7	inactive
CG10063	DRSC09688	3.31e7	3.89e7		1.65e7	1.70e7	inactive
schlank	DRSC18102	3.40e7	4.22e7		1.64e7	1.92e7	inactive
schlank	DRSC18313	3.33e7	4.05e7		1.58e7	1.96e7	inactive
CG15336	DRSC18019	2.78e7	3.74e7		1.37e7	1.76e7	inactive
CG42450	DRSC20022	4.85e7	4.25e7		2.23e7	1.71e7	inactive
CG42450	DRSC22751	3.76e7	3.56e7		2.21e7	1.56e7	inactive
CG18131	DRSC00517	5.04e7	7.56e7		2.41e7	2.86e7	inactive
CG18131	DRSC22983	5.82e7	2.29e7		2.83e7	1.05e7	inactive
Drep4 (DNA fragmentation factor-related protein 4)	DRSC03408	2.99e7	1.78e7		1.58e7	8.61e6	inactive
CG1703	DRSC19764	2.24e7	2.68e7		1.15e7	1.40e7	inactive
CG6403	DRSC16033	2.79e7	4.48e7		1.47e7	2.01e7	inactive
CG42518 + MED9	DRSC06917	3.25e7	3.10e7		1.56e7	1.59e7	inactive
CG11696	DRSC19417	3.08e7	4.68e7		1.58e7	1.93e7	inactive
wb (wing blister)	DRSC01375	1.71e7	2.50e7		1.23e7	1.40e7	inactive
wb (wing blister)	DRSC03634	5.02e7	3.55e7		2.27e7	1.74e7	inactive
wb (wing blister)	DRSC23003	3.41e7	3.03e7		1.70e7	1.56e7	inactive
